Measurements reported in publication PMC5540913.
These are yes or no findings as the source states them, for the method shown. In cells and extracts the contact can be indirect. Some results given as binding are weak or reduced against the parent protein; the word gives no strength.

By UniProt entry, the sequences of proteins in these tests, tags left out.
UniProt Q62296: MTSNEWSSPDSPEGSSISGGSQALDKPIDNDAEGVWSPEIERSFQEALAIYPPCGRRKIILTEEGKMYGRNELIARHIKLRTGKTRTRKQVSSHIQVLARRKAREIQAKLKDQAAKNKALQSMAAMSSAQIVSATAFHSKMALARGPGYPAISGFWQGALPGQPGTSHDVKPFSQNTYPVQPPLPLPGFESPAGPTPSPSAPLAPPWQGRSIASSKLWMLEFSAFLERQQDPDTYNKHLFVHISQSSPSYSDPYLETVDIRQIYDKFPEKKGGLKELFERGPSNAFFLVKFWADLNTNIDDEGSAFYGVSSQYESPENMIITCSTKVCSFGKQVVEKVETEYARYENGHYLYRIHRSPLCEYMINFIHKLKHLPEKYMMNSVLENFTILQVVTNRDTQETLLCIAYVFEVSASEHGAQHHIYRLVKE
UniProt P30051: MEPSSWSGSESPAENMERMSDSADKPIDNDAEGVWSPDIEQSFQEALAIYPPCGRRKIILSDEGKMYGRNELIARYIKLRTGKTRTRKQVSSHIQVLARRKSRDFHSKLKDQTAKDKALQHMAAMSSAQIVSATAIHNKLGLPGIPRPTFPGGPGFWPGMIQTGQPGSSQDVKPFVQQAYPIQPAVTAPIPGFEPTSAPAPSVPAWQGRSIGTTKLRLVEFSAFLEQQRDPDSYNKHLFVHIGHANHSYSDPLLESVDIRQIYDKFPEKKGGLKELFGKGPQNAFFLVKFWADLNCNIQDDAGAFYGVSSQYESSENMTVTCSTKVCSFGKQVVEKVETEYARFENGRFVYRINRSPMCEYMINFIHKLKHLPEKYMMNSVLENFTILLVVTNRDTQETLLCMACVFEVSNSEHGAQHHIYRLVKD

Columns and labels:
Experiment in all cases: co-IP; endogenous proteins in P7 mouse GPS muscle extracts (20 mM HEPES-NaOH pH 8.0, 150 mM NaCl, 1 mM EDTA, 1.5 mM MgCl2, 0.5% Triton X-100, 10% glycerol; sonicated, Benzonase-treated); anti-Vgll2, anti-TEAD1 or anti-TEAD4 antibody on Dynabeads, 1 h at 4 °C, washed 3 times in PBS; Western blot; controls: Vgll2 -/- extracts and beads without antibody
[1] = molecular target: T1, Vestigial-like 2 (Vgll2) (mouse (endogenous in P7 GPS muscle)) (UniProt Q8BGW8)
T1 sequence: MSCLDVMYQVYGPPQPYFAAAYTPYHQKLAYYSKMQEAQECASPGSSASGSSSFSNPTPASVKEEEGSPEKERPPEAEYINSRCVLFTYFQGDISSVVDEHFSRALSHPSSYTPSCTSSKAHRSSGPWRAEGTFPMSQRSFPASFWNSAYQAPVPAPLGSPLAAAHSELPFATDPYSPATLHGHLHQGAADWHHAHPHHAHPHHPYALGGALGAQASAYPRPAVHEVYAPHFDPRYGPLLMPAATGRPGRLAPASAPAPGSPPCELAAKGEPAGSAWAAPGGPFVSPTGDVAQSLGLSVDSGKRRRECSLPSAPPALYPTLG

[2] = molecular target: TEA domain transcription factor 4 (TEAD4) (mouse (endogenous in P7 GPS muscle)) (UniProt Q62296)
[3] = molecular target: TEA domain transcription factor 1 (TEAD1) (mouse (endogenous in P7 GPS muscle)) (UniProt P30051)

Molecule: TEA domain transcription factor 1 (TEAD1) (from UniProt P30051 1-426)
- binding [1]: binds

Molecule: TEA domain transcription factor 4 (TEAD4) (from UniProt Q62296 1-427)
- binding [1]: binds

B1: Vestigial-like 2 (Vgll2) (protein, UniProt Q8BGW8 1-322)
chain: T1 sequence
- binding [2]: binds
- binding [3]: binds
